Laboratory results: doi:10.1101/2023.05.11.540316
No constants are given. Whether binding was seen depends on the method and setting. In cells and extracts the contact can be indirect. A yes stands for co-enrichment or nearness to the bait. Other partners may have been found.

Target: STXBP1-emGFP (UniProt P61765)
Assay: affinity purification with mass spectrometry

B1: DDHD2, endogenous in PC12 cells (enzyme, UniProt D3ZJ91 1-699)
chain: MSSGESYQEQLSQSDPSPSPNSSSSFELLDMDVGSSYEPVSPHWFYCKVIDSKELWIPFNSEDSQQLEEAHGSGKDCNERVVPTDGGRYDVHLGERMRYAVYWDELPSEVRRCTWFYKGDKDNKYVPYSESFSQVLEDTYMLAVTLDEWKKKLESPNREIIVLHNPKLMVHYQPITGSDEWGSTSTEQGRPRSVKRGVESIPVDIHCGEPLQIDHLVFVVHGIGPACDLRFRSIVQCVNDFRSVSLNLLQTHFKKAQENQQIGRVEFLPVNWHSPLHSTGVDIDLQRITLPSINRLRHFTNDTILDVFFYNSPTYCQTIVDTVASEMNRIYTLFLQRNPDFKGGVSIAGHSLGSLILFDILTNQKDSIGDIDSEKGSLSTAEDLGDVSTLEEELKKLQLSEFVTVFEKEKVDREALALCTDRDLQEMGIPLGPRKKILNHFSATKSSVGINRPTMSASEVNIPKEKGDYLDVGIGQVSVKYPRLNYKPEIFFAFGSPIGMFLTVRGLRRIDPNYKFPTCKGFFNIYHPFDPVAYRIEPMVVPGVEFEPMLIPHHKGRKRMHLELREGLTRMSMDLKNNLLGSLRMAWKSFTRAPYPALQASEMAEDTEAESEPSSEKPSDANTEEPPVEVKEEAPINVGMLNGGQRIDYVLQEKPIESFNEYLFALQSHLCYWESEDTVLLVLKEIYQTQGIFLDQPLQ
In the case of B1, the binding is reported as “binds”.
